These are yes or no findings as the source states them, for the method shown. Some entries that bind do so weakly or less than the wild type.

The target of this assay is T1, B7H3 (on MCF-7 cells) (UniProt Q5ZPR3).
T1 sequence (looked up): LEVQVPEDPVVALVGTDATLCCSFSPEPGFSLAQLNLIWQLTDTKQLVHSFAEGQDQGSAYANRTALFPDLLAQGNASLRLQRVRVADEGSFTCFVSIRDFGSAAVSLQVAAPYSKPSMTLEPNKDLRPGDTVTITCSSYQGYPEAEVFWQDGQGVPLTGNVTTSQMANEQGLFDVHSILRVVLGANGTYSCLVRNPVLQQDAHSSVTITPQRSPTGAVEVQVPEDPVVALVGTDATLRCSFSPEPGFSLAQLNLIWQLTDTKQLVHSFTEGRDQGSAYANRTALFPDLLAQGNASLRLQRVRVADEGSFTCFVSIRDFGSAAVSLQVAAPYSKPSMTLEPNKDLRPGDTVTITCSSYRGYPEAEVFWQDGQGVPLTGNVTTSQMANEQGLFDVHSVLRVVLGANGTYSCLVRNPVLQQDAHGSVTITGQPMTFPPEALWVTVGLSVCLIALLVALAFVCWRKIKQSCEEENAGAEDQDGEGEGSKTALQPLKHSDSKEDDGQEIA
Kind of assay: flow cytometry on MCF-7 cells, FITC anti-human IgG F(ab')2. On the technique in general: Flow cytometry measures light scatter and fluorescence of single cells or particles in a stream.

B1: B7H3嵌合抗体 (antibody, human IgG1, kappa, V domains shown)
VH: QVQLQQSGAELVKPGASVKLSCKASGYTFTNYDINWVRQRPEQGLEWIGWIFPGDGSTQYNEKFKGKATLTTDTSSSTAYMQLSRLTSEDSAVYFCARQTTATWFAYWGQGTLVTVSA
VL: DIVMTQSPATLSVTPGDRVSLSCRASQSISDYLHWYQQKSHESPRLLIKYASQSISGIPSRFSGSGSGSDFTLSINSVEPEDVGVYYCQNGHSFPLTFGAGTKLELKR
Take B1: the binding result is on record as “binds”.

(Values after patent publication CN114106195A.)
